# Measured values taken from the supplement of paper PMC7666118.
# Chains of the proteins cited; added tags and fusions are not shown. Lines headed by an entry give the natural chain unless they say otherwise; changes in a name come on top.
# UniProt Q9NS00: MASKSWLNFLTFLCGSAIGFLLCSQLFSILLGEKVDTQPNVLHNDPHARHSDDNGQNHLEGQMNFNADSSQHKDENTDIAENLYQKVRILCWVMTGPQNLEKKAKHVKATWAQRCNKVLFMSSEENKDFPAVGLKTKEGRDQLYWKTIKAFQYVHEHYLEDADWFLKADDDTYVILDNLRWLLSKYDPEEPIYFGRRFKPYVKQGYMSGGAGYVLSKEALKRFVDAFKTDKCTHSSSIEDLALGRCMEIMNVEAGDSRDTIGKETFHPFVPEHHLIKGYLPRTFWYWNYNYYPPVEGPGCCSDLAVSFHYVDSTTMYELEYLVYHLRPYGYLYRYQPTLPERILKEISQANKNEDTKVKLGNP
# UniProt Q16566: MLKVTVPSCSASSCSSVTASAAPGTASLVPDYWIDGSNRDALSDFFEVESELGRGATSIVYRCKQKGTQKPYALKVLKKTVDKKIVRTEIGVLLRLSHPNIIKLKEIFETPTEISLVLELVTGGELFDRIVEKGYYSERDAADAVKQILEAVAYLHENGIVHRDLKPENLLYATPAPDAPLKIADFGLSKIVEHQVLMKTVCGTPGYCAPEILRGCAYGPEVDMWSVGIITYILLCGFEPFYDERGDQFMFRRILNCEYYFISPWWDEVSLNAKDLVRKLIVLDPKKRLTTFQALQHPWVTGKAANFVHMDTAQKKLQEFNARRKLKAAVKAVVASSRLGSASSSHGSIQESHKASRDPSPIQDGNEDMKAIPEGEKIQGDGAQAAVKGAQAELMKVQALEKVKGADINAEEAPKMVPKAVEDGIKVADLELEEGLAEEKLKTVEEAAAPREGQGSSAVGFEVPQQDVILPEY
# UniProt Q8IX90, whole entry: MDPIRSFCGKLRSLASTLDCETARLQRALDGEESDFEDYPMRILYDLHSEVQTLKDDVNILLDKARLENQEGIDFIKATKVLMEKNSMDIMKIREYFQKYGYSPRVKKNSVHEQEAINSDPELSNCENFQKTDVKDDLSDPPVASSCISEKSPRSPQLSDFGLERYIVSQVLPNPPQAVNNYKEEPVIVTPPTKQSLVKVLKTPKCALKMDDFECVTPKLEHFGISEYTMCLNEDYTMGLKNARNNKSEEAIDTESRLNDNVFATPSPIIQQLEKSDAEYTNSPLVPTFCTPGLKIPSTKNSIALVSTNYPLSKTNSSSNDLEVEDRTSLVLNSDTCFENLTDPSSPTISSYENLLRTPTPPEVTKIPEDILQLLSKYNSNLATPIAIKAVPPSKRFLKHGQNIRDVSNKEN
# UniProt Q6ICL3: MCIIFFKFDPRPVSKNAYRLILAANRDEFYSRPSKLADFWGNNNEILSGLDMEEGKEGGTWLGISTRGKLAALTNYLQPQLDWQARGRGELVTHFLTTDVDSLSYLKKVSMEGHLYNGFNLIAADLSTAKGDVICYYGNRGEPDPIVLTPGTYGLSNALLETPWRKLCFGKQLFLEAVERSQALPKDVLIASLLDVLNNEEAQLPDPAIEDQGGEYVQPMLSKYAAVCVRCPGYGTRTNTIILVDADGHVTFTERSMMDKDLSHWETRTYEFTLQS
# UniProt Q68CZ6: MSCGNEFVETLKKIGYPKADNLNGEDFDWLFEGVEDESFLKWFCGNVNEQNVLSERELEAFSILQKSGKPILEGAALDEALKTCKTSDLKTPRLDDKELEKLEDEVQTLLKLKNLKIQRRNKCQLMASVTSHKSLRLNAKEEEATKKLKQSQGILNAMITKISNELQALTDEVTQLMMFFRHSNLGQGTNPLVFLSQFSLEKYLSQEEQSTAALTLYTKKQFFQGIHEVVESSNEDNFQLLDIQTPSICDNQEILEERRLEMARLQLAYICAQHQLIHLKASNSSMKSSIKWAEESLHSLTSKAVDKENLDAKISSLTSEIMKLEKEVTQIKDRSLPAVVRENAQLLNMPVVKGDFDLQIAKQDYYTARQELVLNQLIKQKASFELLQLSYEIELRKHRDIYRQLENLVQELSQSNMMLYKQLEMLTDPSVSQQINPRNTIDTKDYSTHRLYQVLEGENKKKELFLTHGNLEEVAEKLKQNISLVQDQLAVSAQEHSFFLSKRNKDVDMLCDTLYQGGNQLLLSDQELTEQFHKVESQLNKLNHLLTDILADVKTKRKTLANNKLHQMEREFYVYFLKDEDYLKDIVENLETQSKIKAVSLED
# UniProt Q9Y6A4: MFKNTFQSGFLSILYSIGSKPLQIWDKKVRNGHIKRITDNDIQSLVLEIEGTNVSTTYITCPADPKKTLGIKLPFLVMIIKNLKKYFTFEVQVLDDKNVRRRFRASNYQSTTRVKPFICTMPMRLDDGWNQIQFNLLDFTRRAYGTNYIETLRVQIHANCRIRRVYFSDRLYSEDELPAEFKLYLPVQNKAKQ
# UniProt Q96LW7: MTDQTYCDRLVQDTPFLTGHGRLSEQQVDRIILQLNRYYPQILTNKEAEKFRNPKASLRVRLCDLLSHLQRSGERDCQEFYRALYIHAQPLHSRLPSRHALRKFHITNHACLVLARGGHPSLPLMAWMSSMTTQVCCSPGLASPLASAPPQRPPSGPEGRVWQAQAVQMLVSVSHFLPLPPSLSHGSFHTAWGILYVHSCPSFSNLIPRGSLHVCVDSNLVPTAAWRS
# UniProt Q9H7Z3: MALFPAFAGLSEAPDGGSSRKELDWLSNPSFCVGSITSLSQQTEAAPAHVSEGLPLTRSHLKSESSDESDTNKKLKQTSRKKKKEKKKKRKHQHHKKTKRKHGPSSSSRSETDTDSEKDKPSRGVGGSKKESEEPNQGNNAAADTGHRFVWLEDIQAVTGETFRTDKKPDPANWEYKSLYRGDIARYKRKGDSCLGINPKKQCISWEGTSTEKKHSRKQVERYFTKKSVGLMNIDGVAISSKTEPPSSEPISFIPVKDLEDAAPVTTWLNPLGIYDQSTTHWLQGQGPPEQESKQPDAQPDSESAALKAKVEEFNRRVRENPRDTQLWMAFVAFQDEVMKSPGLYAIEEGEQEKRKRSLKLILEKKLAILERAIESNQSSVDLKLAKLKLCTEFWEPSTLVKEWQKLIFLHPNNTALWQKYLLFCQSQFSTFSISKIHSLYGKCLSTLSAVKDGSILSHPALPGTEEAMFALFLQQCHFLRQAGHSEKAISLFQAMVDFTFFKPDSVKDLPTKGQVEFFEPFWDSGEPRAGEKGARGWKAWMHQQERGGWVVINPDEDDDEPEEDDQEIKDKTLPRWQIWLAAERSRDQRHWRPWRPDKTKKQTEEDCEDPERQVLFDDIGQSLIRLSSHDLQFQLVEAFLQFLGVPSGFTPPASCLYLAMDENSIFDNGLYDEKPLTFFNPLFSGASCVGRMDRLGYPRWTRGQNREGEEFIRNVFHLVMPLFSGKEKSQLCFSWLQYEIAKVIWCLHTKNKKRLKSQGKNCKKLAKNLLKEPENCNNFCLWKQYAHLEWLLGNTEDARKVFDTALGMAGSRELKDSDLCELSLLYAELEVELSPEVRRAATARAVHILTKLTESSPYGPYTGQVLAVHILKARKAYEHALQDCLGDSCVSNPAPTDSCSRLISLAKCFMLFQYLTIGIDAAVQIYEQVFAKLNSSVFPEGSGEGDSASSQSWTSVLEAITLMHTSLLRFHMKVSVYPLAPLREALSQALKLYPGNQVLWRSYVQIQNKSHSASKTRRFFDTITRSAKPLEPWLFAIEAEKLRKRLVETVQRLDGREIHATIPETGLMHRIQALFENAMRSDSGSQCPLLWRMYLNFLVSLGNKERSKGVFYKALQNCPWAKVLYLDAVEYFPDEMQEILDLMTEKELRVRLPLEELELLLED
# UniProt Q96BD8: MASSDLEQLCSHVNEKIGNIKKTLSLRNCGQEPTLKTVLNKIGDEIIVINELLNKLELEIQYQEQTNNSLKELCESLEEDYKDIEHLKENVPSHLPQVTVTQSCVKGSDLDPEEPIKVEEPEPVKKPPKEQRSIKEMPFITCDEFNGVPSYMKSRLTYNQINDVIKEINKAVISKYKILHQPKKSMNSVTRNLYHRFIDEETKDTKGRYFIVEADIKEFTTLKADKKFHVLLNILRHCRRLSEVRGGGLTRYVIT
# UniProt Q6P4E1: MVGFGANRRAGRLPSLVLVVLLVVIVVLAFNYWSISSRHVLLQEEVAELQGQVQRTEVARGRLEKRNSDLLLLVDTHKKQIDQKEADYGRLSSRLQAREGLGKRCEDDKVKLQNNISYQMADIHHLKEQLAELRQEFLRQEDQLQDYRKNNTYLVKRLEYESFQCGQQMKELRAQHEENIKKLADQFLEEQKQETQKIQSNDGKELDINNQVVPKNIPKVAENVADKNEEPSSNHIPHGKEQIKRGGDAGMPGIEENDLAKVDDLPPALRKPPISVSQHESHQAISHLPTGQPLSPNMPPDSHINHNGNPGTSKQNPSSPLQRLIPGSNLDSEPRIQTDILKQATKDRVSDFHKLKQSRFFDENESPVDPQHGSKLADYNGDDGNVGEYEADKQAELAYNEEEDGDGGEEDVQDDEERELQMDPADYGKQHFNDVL
# UniProt Q9BRT2: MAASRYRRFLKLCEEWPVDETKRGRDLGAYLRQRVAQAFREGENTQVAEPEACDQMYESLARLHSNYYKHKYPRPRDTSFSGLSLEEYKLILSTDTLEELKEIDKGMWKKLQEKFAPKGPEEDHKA
# UniProt Q9H6R7: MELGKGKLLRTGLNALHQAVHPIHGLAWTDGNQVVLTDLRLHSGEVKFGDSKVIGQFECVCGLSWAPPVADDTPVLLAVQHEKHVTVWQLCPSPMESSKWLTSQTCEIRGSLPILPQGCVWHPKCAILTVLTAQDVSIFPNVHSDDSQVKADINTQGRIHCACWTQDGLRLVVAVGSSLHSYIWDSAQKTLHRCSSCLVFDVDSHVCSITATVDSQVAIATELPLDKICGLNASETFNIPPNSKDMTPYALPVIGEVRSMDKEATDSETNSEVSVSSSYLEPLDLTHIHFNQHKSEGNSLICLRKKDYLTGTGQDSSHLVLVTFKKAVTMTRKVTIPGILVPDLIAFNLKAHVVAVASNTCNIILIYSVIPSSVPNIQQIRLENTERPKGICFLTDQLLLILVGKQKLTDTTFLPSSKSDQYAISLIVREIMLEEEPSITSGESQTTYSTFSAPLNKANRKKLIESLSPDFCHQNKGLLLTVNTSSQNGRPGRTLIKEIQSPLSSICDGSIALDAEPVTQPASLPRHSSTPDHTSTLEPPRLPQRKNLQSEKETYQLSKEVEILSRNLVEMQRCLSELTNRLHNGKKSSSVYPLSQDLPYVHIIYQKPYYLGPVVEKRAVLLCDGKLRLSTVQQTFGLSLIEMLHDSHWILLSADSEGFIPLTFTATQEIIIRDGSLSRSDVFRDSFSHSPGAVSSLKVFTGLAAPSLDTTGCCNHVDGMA
# This is one part of the list.
# Compound: COc1ccc(Cn2ccc3ccc(C(=O)NO)cc32)cc1
# Experiment: dose-dependent thermal stabilisation call (2D-TPP, DLPTP, 10% FDR) (binary (1 = stabilised)); higher = stabilised by the compound
# Conditions: system: HL-60 intact cells; concentration range 0.04-10 µM
row,Target,dose-dependent thermal stabilisation call
1,C16ORF13 (UniProt Q96S19),active: 1
2,C1GALT1 (UniProt Q9NS00),inactive: 0
3,CAMK4 (UniProt Q16566),inactive: 0
4,C13ORF3 (UniProt Q8IX90),inactive: 0
5,C22ORF25 (UniProt Q6ICL3),inactive: 0
6,C4ORF15 (UniProt Q68CZ6),inactive: 0
7,C16ORF80 (UniProt Q9Y6A4),inactive: 0
8,C9ORF89 (UniProt Q96LW7),inactive: 0
9,C14ORF102 (UniProt Q9H7Z3),inactive: 0
10,C18ORF24 (UniProt Q96BD8),inactive: 0
11,CASC4 (UniProt Q6P4E1),inactive: 0
12,C6ORF125 (UniProt Q9BRT2),inactive: 0
13,C2ORF44 (UniProt Q9H6R7),inactive: 0

# Random excerpt: 2 entries already listed.
row,Target,dose-dependent thermal stabilisation call
7,C16ORF80 (UniProt Q9Y6A4),inactive: 0
2,C1GALT1 (UniProt Q9NS00),inactive: 0
